PubChem BioAssay AID1259274 | Sanger Institute | 2017
In all, the deposit lists 794 reagents; this is a random part of them. 11 of them (1.4%) count as active. 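Calls rest on knock-down without drug only; synergy scores with anchor drugs were not used for the essential call.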 Viability is capped at 1. Not all columns of the deposit are shown. The record does not give: the amount of reagent, the time to read-out.

Assay: 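Kinases RKO cells need to grow, alone or with anchor drugs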 (primary screen)
Cells: human RKO colorectal cancer cells
Reagent: siRNA pool against human genes
Conditions: anchor drugs BYL719 at 1 µM, cetuximab at 5 µg/ml or trametinib at 10 nM; DMSO vehicle as the no-drug arm
Measurement: 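Viability of cells versus control pool 2 (non-targeting) averaged across replicates; knock-down-only robust z-score; for every anchor drug (BYL719, cetuximab, trametinib) a synergy score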
Reading the numbers: viability z-score, siRNA alone: higher = more viable cells; low values mean essential gene; viability, siRNA alone, vehicle: higher = more viable cells; synergy score with BYL719 and synergy score with Trametinib: higher = stronger combined killing with the drug
Active means: 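a single knock-down scoring under -3 on the robust z-score, meaning fewer cells, counts as essential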
Calls: active = essential when knocked down alone; inactive = no change alone

The opening 2 entries, to show the layout:
no.	gene symbol	viability z-score, siRNA alone	viability, siRNA alone, vehicle (fraction of control)	synergy score with BYL719	synergy score with Trametinib	Call
1	EPHA7 (EPH receptor A7)	-0.568	0.849	-0.145	-0.0309	inactive
2	IRAK1 (interleukin 1 receptor associated kinase 1)	-0.246	0.877	-0.273	-0.0226	inactive

The listing, repeating the preview:
no.	gene symbol	viability z-score, siRNA alone	viability, siRNA alone, vehicle (fraction of control)	synergy score with BYL719	synergy score with Trametinib	Call
1	EPHA7 (EPH receptor A7)	-0.568	0.849	-0.145	-0.0309	inactive
2	IRAK1 (interleukin 1 receptor associated kinase 1)	-0.246	0.877	-0.273	-0.0226	inactive
3	CDKL1 (cyclin dependent kinase like 1)	0.124	0.909	-0.0802	-0.17	inactive
4	FRK (fyn related Src family tyrosine kinase)	1.19	1	-0.109	-0.109	inactive
5	CASP8 (caspase 8)	0.58	0.948	-0.0498	-0.146	inactive
6	HUS1 (HUS1 checkpoint clamp component)	-0.278	0.874	-0.0968	-0.17	inactive
7	NUP98 (nucleoporin 98 and 96 precursor)	-5.21	0.451	-0.0819	-0.152	active
8	EPHA4 (EPH receptor A4)	-0.876	0.823	-0.0134	-0.147	inactive
9	TWF1 (twinfilin actin binding protein 1)	0.198	0.915	-0.166	-0.243	inactive
10	PPP2R1A (protein phosphatase 2 scaffold subunit Aalpha)	-0.64	0.843	-0.142	-0.176	inactive
11	ACSL6 (acyl-CoA synthetase long chain family member 6)	0.207	0.916	-0.118	-0.141	inactive
12	STAG2 (STAG2 cohesin complex component)	-0.312	0.871	-0.0875	-0.189	inactive
13	AKAP9 (A-kinase anchoring protein 9)	0.56	0.946	-0.0556	-0.144	inactive
14	PLK3 (polo like kinase 3)	0.36	0.929	-0.021	-0.131	inactive
15	CHD4 (chromodomain helicase DNA binding protein 4)	-2.93	0.647	-0.00305	0.0785	inactive
16	PSKH2 (protein serine kinase H2)	-0.88	0.823	-0.0924	-0.239	inactive
17	PRKCZ (protein kinase C zeta)	-1.23	0.793	-0.136	0.0503	inactive
18	TCF7L2 (transcription factor 7 like 2)	0.727	0.96	-0.0809	-0.339	inactive
19	CDKL3 (cyclin dependent kinase like 3)	1.19	1	0.0881	-0.3	inactive
20	IP6K1 (inositol hexakisphosphate kinase 1)	0.881	0.973	-0.13	-0.169	inactive
